The assay has as its target Syk-myc-his (in HEK-293T cells) (pig) (UniProt Q00655). Briefly: co-IP; HEK-293T cells cotransfected with 3×Flag-DAP12 and Syk-myc-his for 48 h; IP with anti-Myc or anti-Flag MAb; NP-40 lysis buffer.

Chains of the proteins cited; added tags and fusions are not shown.
UniProt Q00655: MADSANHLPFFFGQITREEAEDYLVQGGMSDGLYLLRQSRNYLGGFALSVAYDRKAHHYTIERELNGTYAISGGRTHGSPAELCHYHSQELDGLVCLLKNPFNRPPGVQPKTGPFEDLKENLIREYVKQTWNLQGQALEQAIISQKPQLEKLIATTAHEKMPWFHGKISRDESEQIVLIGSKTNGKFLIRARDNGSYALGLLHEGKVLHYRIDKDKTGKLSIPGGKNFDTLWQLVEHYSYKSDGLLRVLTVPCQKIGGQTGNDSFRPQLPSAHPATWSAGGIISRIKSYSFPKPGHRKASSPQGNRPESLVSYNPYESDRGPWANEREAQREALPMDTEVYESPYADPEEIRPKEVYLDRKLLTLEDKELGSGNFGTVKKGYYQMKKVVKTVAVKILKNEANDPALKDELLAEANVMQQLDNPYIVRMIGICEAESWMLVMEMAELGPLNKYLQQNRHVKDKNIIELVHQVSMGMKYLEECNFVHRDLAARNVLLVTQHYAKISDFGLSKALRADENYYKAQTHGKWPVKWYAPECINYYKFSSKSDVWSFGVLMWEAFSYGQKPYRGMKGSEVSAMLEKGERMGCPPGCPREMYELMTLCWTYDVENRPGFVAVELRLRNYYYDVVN

Results are given in words; binding and its absence hold for the method and conditions named. In cells and extracts the contact can be indirect. Some results given as binding are weak or reduced against the parent protein; the word gives no strength. Tags and fused reporters may be left off the sequences shown.

B1: 3×Flag-DAP12 (in HEK-293T cells) (protein, UniProt Q9TU45 26-108)
chain: QRECSCSAVSPGILAGIVLGDLVLTLLIALAVYSLGRLVPRTRGAVDVTRKQHIAETESAYQELQGQRSDVYSDLNTQRQYYK
For the molecule B1, the binding entry was “binds”.
